# Laboratory results taken from PubChem BioAssay AID2685 (National Center for Advancing Translational Sciences (NCATS), 2010).
# The other results are listed elsewhere or left out. These are further read-outs of the screen, such as a control signal, another cell line or another target. No call is given for them. Compounds called inactive in the main read-out are mostly missing here. Potencies come from curve fits of mixed quality, noted in brackets.
# Experiment: qHTS Assay for Lipid Storage Modulators in Drosophila S3 Cells;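 on cell number change: cells counted by Cell Tracker Red CMTPX staining in the red channel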
# Conditions: BODIPY lipid droplet fluorescence, 18-24 h; for cell number change: measured here: cell count max response, cells fed with added oleic acid
# Method in brief: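 Drosophila S3 cells got compounds at several concentrations plus oleic acid (400 uM solution). Laser-scanning cytometry with 488 nm excitation read lipid droplets at 500-530 nm and cells at 575-640 nm. Percent activity was relative to 20 uM Triacsin C.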
# [1] = measured here: cell number channel AC50, cells fed with added oleic acid
# [2] = measured here: lipid fluorescence (Fed channel) AC50, cells fed with added oleic acid
Compound,cell number change [%],AC50 [1],AC50 [2]
CCN(Cc1ccccc1)S(=O)(=O)c1cc(C(=O)NC2CCCCCC2)ccc1OC,52.1,"23.1 µM [rising, single point]",–
O=C(CSc1ncn[nH]1)Nc1ccc(Cl)c(S(=O)(=O)N2CCOCC2)c1,-1.31,–,"2.31 µM [rising, single point]"
Cc1cccc(N(CC(=O)NCc2ccccc2)C(=O)Cn2nnc(-c3ccc(C)o3)n2)c1,-0.387,–,–
Cc1ccc(C(=O)Nc2cccnc2N2CCN(C)CC2)cc1,-45.6,"16.4 µM [falling, partial curve, poor fit]","0.92 µM [falling, full curve]"
CC(NC(=O)CN1C(=O)NC2(CCCCCC2)C1=O)c1ccccc1Cl (configuration not stated),-25.1,–,"1.64 µM [rising, partial curve]"
O=C(NCCc1ccncc1)Nc1ccc(Cl)cc1,5.19,–,"10.3 µM [rising, partial curve]"
CCOC(=O)C1CCCCN1Cc1cccc(F)c1 (configuration not stated),-96.5,"3.26 µM [falling, full curve]",–
COCCCNC(=O)c1ccc(-n2nc(C(F)(F)F)cc2-c2cccs2)cc1,14.4,–,"6.51 µM [rising, single point]"
CCOC(=O)c1[nH]c2ccc(OC)cc2c1NC(=O)CN1CCSCC1,-5.35,–,"1.84 µM [rising, full curve]"
Cc1n[nH]c(C)c1S(=O)(=O)N1CCCC(C(=O)NC2CCCc3ccccc32)C1 (configuration not stated),-63.7,"29.1 µM [falling, single point]","0.116 µM [rising, full curve, poor fit]"
Cc1ccc(NC(=O)c2cc([N+](=O)[O-])ccc2Cl)c(O)c1,112,"23.1 µM [rising, partial curve]","18.4 µM [rising, partial curve]"
CS(=O)(=O)c1ccc(C(=O)Nc2cc(-c3ccccc3)nn2-c2ccccc2)cc1,-0.528,–,"0.58 µM [rising, single point]"
COc1ccc(-c2ccc3c(c2)c(-c2cccs2)c(-c2cc(OC)cc(OC)c2)n3C)cc1,15.5,–,–
CC(=O)Nc1ccc(S(=O)(=O)NCCSCc2cccc(Cl)c2)cc1,–,–,"16.4 µM [falling, partial curve, poor fit]"
CC(C)(C)c1cc(OC(=O)C2CCCC2)ccc1O,-24.1,–,–
COc1ccc(CN2CCN(CCC(C)C)C(CCO)C2)cc1Cn1cncn1 (configuration not stated),11.6,–,"29.1 µM [rising, single point]"
O=C(CN1C(=O)CCC1=O)Nc1ccc2c3c(cccc13)CC2,4.06,–,"0.82 µM [rising, full curve, poor fit]"
c1ccc(CCN(Cc2ccccc2)Cc2nc(C3CC3)no2)cc1,-20.8,–,"32.6 µM [falling, single point]"
O=C(O)c1ccc2c(c1)OCCOCCOCCOCCOCCO2,-3.6,–,"3.26 µM [falling, partial curve]"
Cc1ccccc1NC(=S)N(Cc1cccs1)C1CCCC1,67.3,–,–
CC(C)c1ccc(S(=O)(=O)N2CCN(C(=O)CCNC(=O)Nc3ccccc3)CC2)cc1,7.48,–,"0.00517 µM [falling, full curve, poor fit]"

Compound,cell number change [%],AC50 [1],AC50 [2]
Cc1cnc(-c2nnc(N(C)C(=O)C3CCCO3)s2)cn1 (configuration not stated),27.7,"3.26 µM [rising, full curve, poor fit]",–
O=C(NC1CCCC1)C1CCN(S(=O)(=O)c2ccccc2)CC1,-14.5,–,–
O=C(COc1ccc(S(=O)(=O)NC2CCCCC2)cc1Cl)NCc1ccc2c(c1)OCO2,58.5,"16.4 µM [rising, partial curve]","9.2 µM [rising, partial curve]"
CC(C)C[C@H](NC(=O)c1nc[nH]c1C(=O)NCC(=O)OCc1ccccc1)C(=O)OCc1ccccc1,21,"7.31 µM [rising, single point]","29.1 µM [falling, single point]"
Clc1ccc(CSc2nnc(-c3ccncc3)o2)c(Cl)c1,-20.7,–,"0.92 µM [rising, full curve, poor fit]"
Cc1ccc2nc(N3C(=O)CNC3=S)sc2c1,-24.4,–,"7.31 µM [falling, full curve]"
C/C(Cl)=C/Cn1c(SCCN2CCOCC2)nc2c1c(=O)[nH]c(=O)n2C,-15.1,–,–
Cc1ccnc(NS(=O)(=O)c2ccc(NC(=O)COc3ccccc3)cc2)n1,-32.1,"32.6 µM [falling, single point]",–
COc1cc(-c2nc3ccccn3c2NCC2CCCO2)ccc1O (configuration not stated),-4.58,–,"6.51 µM [falling, partial curve, poor fit]"
Oc1ccc(Nc2ncnc3scc(-c4ccccc4)c23)cc1,-18,"0.164 µM [falling, full curve, poor fit]","4.11 µM [falling, single point]"
Cc1ccc2cc(C#N)c(NCCNC(=O)C3CCC3)nc2c1C,-0.312,–,"0.82 µM [rising, partial curve]"
O=C(CC1Nc2ccccc2NC1=O)Nc1ccccc1NC(=O)CC1Nc2ccccc2NC1=O (configuration not stated),5.82,–,"25.9 µM [rising, single point]"
COc1cccc(NC(=O)N2CCN(c3ccc(C(F)(F)F)cn3)CC2)c1,0.968,–,–
COc1ccc(NC(=O)CN2CCN(S(=O)(=O)c3ccc(C(C)C)cc3)CC2)cc1OC,-7.19,–,"1.46 µM [rising, partial curve]"
COc1ccc(NC(=O)CCNS(=O)(=O)c2ccc(NC(C)=O)cc2)cc1Cl,12.2,–,–
CC1CN(C(=O)N2CCCCC2)CCN1C(=O)N1CCCCC1 (configuration not stated),-11,–,"0.651 µM [falling, single point]"
CCSc1ccc([C@@H]2[C@H]3C(=O)N(C)C(=O)[C@H]3[C@]3(C(=O)OC)CCCCN23)cc1,-34.8,"9.2 µM [falling, partial curve, poor fit]",–
CC1CCCCN1S(=O)(=O)c1ccc(C(=O)Nc2nnc(-c3cccs3)o2)cc1 (configuration not stated),–,"0.326 µM [falling, full curve, poor fit]","4.11 µM [rising, partial curve]"
CC/C(=N\NC(=O)c1nnn(-c2nonc2N)c1-c1ccc2c(c1)OCO2)c1ccccc1,0.612,–,"29.1 µM [rising, single point]"
CCCCOC(=O)CCCc1ccc([N+](=O)[O-])cc1[N+](=O)[O-],-9,"0.731 µM [falling, single point]",–
Cc1occc1C(=O)N1CCN(c2ncccn2)CC1,4.24,"0.82 µM [falling, full curve]","2.31 µM [falling, partial curve]"

Compound,cell number change [%],AC50 [1],AC50 [2]
O=C(CCC(=O)N(CC(=O)NC1CCCCC1)Cc1ccccc1)Nc1ccccn1,-15.3,–,"16.4 µM [falling, partial curve, poor fit]"
COCc1nc2ccccc2n1Cc1ccccc1Br,-17.2,–,–
CC1(C)CC(=O)C2=C(C1)OC1=C(C2)C(=O)CC(C)(C)C1,-53.5,"29.1 µM [falling, single point]","25.9 µM [falling, single point]"
Nc1nc(-c2nc3ccccc3[nH]2)cs1,–,"0.82 µM [rising, partial curve]","0.366 µM [rising, full curve]"
CN(C)c1nnnn1-c1ccc(OC(F)(F)F)cc1,-50.6,"0.0517 µM [falling, full curve]",–
FC(F)(F)c1cccc(NC(=S)NCC2COc3ccccc3O2)c1 (configuration not stated),-31.1,"18.4 µM [falling, single point]","29.1 µM [falling, single point]"
CCOC(=O)C1=C(COC(=O)CCCOc2ccccc2)NC(=O)NC1C (configuration not stated),-24.9,–,–
N/C(=N\OC(=O)COc1ccc2ccccc2c1)c1cccnc1,6.42,"2.91 µM [rising, single point]","3.26 µM [rising, partial curve]"
Cc1ccc(C(=O)Nc2ccccc2C(=O)NCc2ccccc2)cc1,-8.11,–,"0.58 µM [rising, partial curve, poor fit]"
CCn1nc(C)c(C(=O)Nc2cc(Oc3ccc(Cl)cc3)cc([N+](=O)[O-])c2)c1C,8.44,–,"4.11 µM [rising, single point]"
CNc1nc2c(-c3ccc(Cl)cc3)nnn2c2ccccc12,-12.5,–,–
CCC(CC)NC(=O)/C=C/c1cccc([N+](=O)[O-])c1,8.31,–,"18.4 µM [rising, single point]"
CCOC(=O)Cc1c(Sc2ccccc2)c2ccccc2n1C,3.13,–,"0.00651 µM [rising, full curve, poor fit]"
COCCCn1c(Cc2ccccc2)nnc1SCC(=O)N1CCCCC1,-9.08,–,–
CC(=O)NCCOC(=O)c1nn(Cc2ccccc2)c(=O)c2ccccc12,8.4,–,"6.51 µM [rising, single point]"
CCCOc1ccc(OCCSc2nnc(N)s2)cc1,–,–,"0.116 µM [rising, full curve]"
Cc1ccccc1NC(=O)C1CCCN1S(=O)(=O)c1ccc2c(c1)n(C)c(=O)c(=O)n2C (configuration not stated),-20.6,–,"23.1 µM [falling, single point]"
Clc1ccc(Cn2ncc3c(NCc4ccccc4)ncnc32)c(Cl)c1,2.3,–,"20.6 µM [rising, single point]"
CC(C)(C)NC(=O)CN(C(=O)CNC(=O)c1cccs1)c1ccccc1F,-6.67,–,–

# Rewritten with bars between the fields: entries from further up
Compound | cell number change [%] | AC50 [1] | AC50 [2]
COc1ccc(-c2ccc3c(c2)c(-c2cccs2)c(-c2cc(OC)cc(OC)c2)n3C)cc1 | 15.5 | – | –
CN(C)c1nnnn1-c1ccc(OC(F)(F)F)cc1 | -50.6 | 0.0517 µM [falling, full curve] | –
